Laboratory results taken from US8377422B2, “Carboxamide derivatives having cooling properties” (Givaudan S.A., priority 2007, dated 2013).

System: panelists
Assay: Cooling intensity: panel tasting of aqueous solutions against menthol at 2 ppm
Type: in vivo, human
Conditions: odor of the aqueous solution at the listed concentration

Row | SMILES | Odor
1 | CCNC(=O)C1CC(C)CCC1C(C)C (stereo not drawn) [WS-3, N-ethyl p-menthanecarboxamide] | None
2 | CC1CCC(C(C)C)C(O)C1 (stereo not drawn) [I-Menthol] | Minty
3 | CC(C)OCCCNC(=O)[C@@H]1C[C@H](C)CC[C@H]1C(C)C [(1R,2S,5R)-N-(3-isopropoxypropyl)-2-isopropyl-5-methylcyclohexanecarboxamide] | None
4 | CC(C)[C@@H]1CC[C@@H](C)C[C@H]1C(=O)NCCCOc1ccccn1 [Ex. 2.5, (1R,2S,5R)-2-isopropyl-5-methyl-N-(3-(pyridin-2-yloxy)propyl)cyclohexane-carboxamide] | None
5 | COCCNC(=O)[C@@H]1C[C@H](C)CC[C@H]1C(C)C [(1R,2S,5R)-2-isopropyl-N-(2-methoxyethyl)-5-methylcyclohexanecarboxamide] | None
6 | CC(C)[C@@H]1CC[C@@H](C)C[C@H]1C(=O)NCCOc1ccccc1 [Ex. 2.7, (1R,2S,5R)-2-isopropyl-5-methyl-N-(2-phenoxyethyl)cyclohexanecarboxamide] | None
